No constants are given. Whether binding was seen depends on the method and setting. In cells and extracts the contact can be indirect. Some binding calls cover weakened binding; strength is not graded here.
Target: Nectin-3 (human (endogenous in the paper's human cell lines; line not stated)) (UniProt Q9NQS3)
Experiment: co-IP; cell lysate (cell line not stated) precipitated with anti-Nectin-3 antibody (A, C-19, C-terminus) or (B, K-20, internal region), 1:100, protein A/G agarose overnight; blots probed for the partners; lysis in HCMF buffer with 0.5% SDS, 0.5% Triton X-100, 2 mM CaCl2

Amino acid sequences for entries named in this document (tags omitted). Residues count along the entry.
UniProt Q9NQS3, residues 58-549: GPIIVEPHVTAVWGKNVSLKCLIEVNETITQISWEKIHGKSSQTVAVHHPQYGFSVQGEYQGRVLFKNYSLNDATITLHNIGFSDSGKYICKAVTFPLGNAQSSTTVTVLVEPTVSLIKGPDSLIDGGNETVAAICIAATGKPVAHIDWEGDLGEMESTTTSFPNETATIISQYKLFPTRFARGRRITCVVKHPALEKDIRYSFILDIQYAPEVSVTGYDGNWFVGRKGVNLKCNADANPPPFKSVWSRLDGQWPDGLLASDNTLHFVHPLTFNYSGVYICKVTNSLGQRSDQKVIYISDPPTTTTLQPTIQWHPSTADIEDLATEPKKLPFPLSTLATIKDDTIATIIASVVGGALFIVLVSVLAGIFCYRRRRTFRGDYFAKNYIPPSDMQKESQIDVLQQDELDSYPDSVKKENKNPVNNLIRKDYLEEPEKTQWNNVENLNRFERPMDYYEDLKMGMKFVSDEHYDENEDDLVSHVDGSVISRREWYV

Row | binding | Binder
1 | binds | γ-catenin (protein, UniProt P14923 1-745) MEVMNLMEQPIKVTEWQQTYTYDSGIHSGANTCVPSVSSKGIMEEDEACGRQYTLKKTTTYTQGVPPSQGDLEYQMSTTARAKRVREAMCPGVSGEDSSLLLATQVEGQATNLQRLAEPSQLLKSAIVHLINYQDDAELATRALPELTKLLNDEDPVVVTKAAMIVNQLSKKEASRRALMGSPQLVAAVVRTMQNTSDLDTARCTTSILHNLSHHREGLLAIFKSGGIPALVRMLSSPVESVLFYAITTLHNLLLYQEGAKMAVRLADGLQKMVPLLNKNNPKFLAITTDCLQLLAYGNQESKLIILANGGPQALVQIMRNYSYEKLLWTTSRVLKVLSVCPSNKPAIVEAGGMQALGKHLTSNSPRLVQNCLWTLRNLSDVATKQEGLESVLKILVNQLSVDDVNVLTCATGTLSNLTCNNSKNKTLVTQNSGVEALIHAILRAGDKDDITEPAVCALRHLTSRHPEAEMAQNSVRLNYGIPAIVKLLNQPNQWPLVKATIGLIRNLALCPANHAPLQEAAVIPRLVQLLVKAHQDAQRHVAAGTQQPYTDGVRMEEIVEGCTGALHILARDPMNRMEIFRLNTIPLFVQLLYSSVENIQRVAAGVLCELAQDKEAADAIDAEGASAPLMELLHSRNEGTATYAAAVLFRISEDKNPDYRKRVSVELTNSLFKHDPAAWEAAQSMIPINEPYGDDMDATYRPMYSSDVPLDPLEMHMDMDGDYPIDTYSDGLRPPYPTADHMLA
2 | binds | ZO-2 (protein, UniProt Q9UDY2 1-1190) MPVRGDRGFPPRRELSGWLRAPGMEELIWEQYTVTLQKDSKRGFGIAVSGGRDNPHFENGETSIVISDVLPGGPADGLLQENDRVVMVNGTPMEDVLHSFAVQQLRKSGKVAAIVVKRPRKVQVAALQASPPLDQDDRAFEVMDEFDGRSFRSGYSERSRLNSHGGRSRSWEDSPERGRPHERARSRERDLSRDRSRGRSLERGLDQDHARTRDRSRGRSLERGLDHDFGPSRDRDRDRSRGRSIDQDYERAYHRAYDPDYERAYSPEYRRGARHDARSRGPRSRSREHPHSRSPSPEPRGRPGPIGVLLMKSRANEEYGLRLGSQIFVKEMTRTGLATKDGNLHEGDIILKINGTVTENMSLTDARKLIEKSRGKLQLVVLRDSQQTLINIPSLNDSDSEIEDISEIESNRSFSPEERRHQYSDYDYHSSSEKLKERPSSREDTPSRLSRMGATPTPFKSTGDIAGTVVPETNKEPRYQEDPPAPQPKAAPRTFLRPSPEDEAIYGPNTKMVRFKKGDSVGLRLAGGNDVGIFVAGIQEGTSAEQEGLQEGDQILKVNTQDFRGLVREDAVLYLLEIPKGEMVTILAQSRADVYRDILACGRGDSFFIRSHFECEKETPQSLAFTRGEVFRVVDTLYDGKLGNWLAVRIGNELEKGLIPNKSRAEQMASVQNAQRDNAGDRADFWRMRGQRSGVKKNLRKSREDLTAVVSVSTKFPAYERVLLREAGFKRPVVLFGPIADIAMEKLANELPDWFQTAKTEPKDAGSEKSTGVVRLNTVRQIIEQDKHALLDVTPKAVDLLNYTQWFPIVIFFNPDSRQGVKTMRQRLNPTSNKSSRKLFDQANKLKKTCAHLFTATINLNSANDSWFGSLKDTIQHQQGEAVWVSEGKMEGMDDDPEDRMSYLTAMGADYLSCDSRLISDFEDTDGEGGAYTDNELDEPAEEPLVSSITRSSEPVQHEESIRKPSPEPRAQMRRAASSDQLRDNSPPPAFKPEPPKAKTQNKEESYDFSKSYEYKSNPSAVAGNETPGASTKGYPPPVAAKPTFGRSILKPSTPIPPQEGEEVGESSEEQDNAPKSVLGKVKIFEKMDHKARLQRMQELQEAQNARIEIAQKHPDIYAVPIKTHKPDPGTPQHTSSRPPEPQKAPSRPYQDTRGSYGSDAEEEEYRQQLSEHSKRGYYGQSARYRDTEL
